No constants are given. Whether binding was seen depends on the method and setting. Binding seen in cells or lysates may run through a third protein. Binding can be weak; no strength is given.
Target: EGFR extracellular domain construct (human)
Assay: co-IP; exogenous co-IP from transfected 293T cells; about 200 ug total cellular protein incubated with the target antibody overnight at 4 °C, protein A-agarose beads, rabbit control IgG as negative control, immunoblot

binding: binds
B1: Procollagen-lysine, 2-oxoglutarate 5-dioxygenase 2 (PLOD2), full-length, expressed from a plasmid (enzyme, UniProt O00469-2 26-758)
chain: ADSEKPSSIPTDKLLVITVATKESDGFHRFMQSAKYFNYTVKVLGQGEEWRGGDGINSIGGGQKVRLMKEVMEHYADQDDLVVMFTECFDVIFAGGPEEVLKKFQKANHKVVFAADGILWPDKRLADKYPVVHIGKRYLNSGGFIGYAPYVNRIVQQWNLQDNDDDQLFYTKVYIDPLKREAINITLDHKCKIFQTLNGAVDEVVLKFENGKARAKNTFYETLPVAINGNGPTKILLNYFGNYVPNSWTQDNGCTLCEFDTVDLSAVDVHPNVSIGVFIEQPTPFLPRFLDILLTLDYPKEALKLFIHNKEVYHEKDIKVFFDKAKHEIKTIKIVGPEENLSQAEARNMGMDFCRQDEKCDYYFSVDADVVLTNPRTLKILIEQNRKIIAPLVTRHGKLWSNFWGALSPDGYYARSEDYVDIVQGNRVGVWNVPYMANVYLIKGKTLRSEMNERNYFVRDKLDPDMALCRNAREMTLQREKDSPTPETFQMLSPPKGVFMYISNRHEFGRLLSTANYNTSHYNNDLWQIFENPVDWKEKYINRDYSKIFTENIVEQPCPDVFWFPIFSEKACDELVEEMEHYGKWSGGKHHDSRISGGYENVPTDDIHMKQVDLENVWLHFIREFIAPVTLKVFAGYYTKGFALLNFVVKYSPERQRSLRPHHDASTFTINIALNNVGEDFQGGGCKFLRYNCSIESPRKGWSFMHPGRLTHLHEGLPVKNGTRYIAVSFIDP

Reference: publication PMC10679098
